The source of these data is patent publication US9012455B2, “Pharmaceutical compositions containing an indoyl isoquinoline containing compound and uses thereof” (The Regents of the University of California, priority 2006, dated 2015).

The test system of this experiment is Ba/F3-p210 cells. Briefly: median-effect and Combination Index analysis (Chou's method). Format: cell-based, murine. Conditions: Mus musculus, read-out: median-effect dose (Dm).

For the molecule `Cc1ccc(NC(=O)c2ccc(CN3CCN(C)CC3)cc2)cc1Nc1nccc(-c2cccnc2)n1` [imatinib], the EC50 stood at 200 nM.
